Structures can show the parent of a compound that is named as a salt. ± gives the standard deviation of the averaged measurements. Some of the results follow. Single values are uncertain here, since repeats match poorly.

The subject of this test is A549. Description: surface PD-L1 immunofluorescence intensity relative to IFN-gamma-only control (ratio); higher = more PD-L1 expression. The following applies: 10 µM; exposure time 24 h; IFN-gamma 100 ng/mL.
For the compound `CC(C)(C)c1cc(O)ccc1O` [tert-Butylhydroquinone], the “surface PD-L1 immunofluorescence intensity” value stood at 0.945.
The figure for `CN(C)CCOC(=O)COc1ccc(Cl)cc1` [Meclofenoxate hydrochloride] is 1.06; for `Brc1c(NC2=NCCN2)ccc2nccnc12` [UK 14,304 tartrate] it is 0.974.
The figure for `Brc1c(NC2=NCCN2)ccc2nccnc12` is 1.01; for `CCC(=O)NC[C@H](Cc1ccc(OCCc2nc(-c3ccccc3)oc2C)cc1)N/C(C)=C\C(=O)c1ccc(C(F)(F)F)cc1` it is 1.24.
As for `Nc1cc(-c2ccncc2)c[nH]c1=O` [Amrinone], the “surface PD-L1 immunofluorescence intensity” value stood at 0.949.
As for `CCOC(=O)c1c(C)n(C)c2ccc(O)cc12` [Mecarbinate], the “surface PD-L1 immunofluorescence intensity” value was 1.07.
The figure for `COc1ccc(C[C@@H]2c3cc(OC)c(OC)cc3CC[N@+]2(C)CCC(=O)OCCCCCOC(=O)CC[N@@+]2(C)CCc3cc(OC)c(OC)cc3[C@H]2Cc2ccc(OC)c(OC)c2)cc1OC` [Cisatracurium besylate (Nimbex)] is 1.16; for `CC(N)C12CC3CC(CC(C3)C1)C2` (stereo not given) [Rimantadine Hydrochloride] it is 1.13.
As for `CN(CCOc1ccc(CC2SC(=O)NC2=O)cc1)c1ccccn1` (stereo not given) [Rosiglitazone maleate], the “surface PD-L1 immunofluorescence intensity” value worked out at 0.98.
The figure for `CN(CCOc1ccc(CC2SC(=O)NC2=O)cc1)c1ccccn1` (stereo not given) [Rosiglitazone Hydrochloride] is 1.07.
The figure for `CCC(=O)OCC(=O)[C@@]1(OC(=O)CC)[C@H](C)C[C@H]2[C@H]3[C@H]([C@@H](O)C[C@@]21C)[C@@]1(C)C=CC(=O)C=C1C[C@H]3Cl` [Alclometasone dipropionate] is 0.803; for `c1ccc2nc(C3=NCCN3)cnc2c1` [BU 239 hydrochloride] it is 1.12; for `Cc1cc(-n2c(=O)[nH]c(=O)n(C)c2=O)ccc1Oc1ccc(SC(F)(F)F)cc1` [Toltrazuril] it is 1.07.
The figure for `CC(C)CCC[C@@H](C)[C@H]1CC[C@H]2[C@@H]3C(=O)C=C4C[C@@H](O)CC[C@]4(C)[C@H]3CC[C@]12C` [7-Ketocholesterol] is 0.951.
Turning to `Cc1ccccc1N1C(=O)c2cc(S(N)(=O)=O)c(Cl)cc2NC1C` (stereo not given) [Metolazone], the “surface PD-L1 immunofluorescence intensity” value came to 0.903.
Regarding `COc1c(OCCCN2CCOCC2)ccc2c1N=C(NC(=O)c1cnc(N)nc1)N1CCN=C21`, the “surface PD-L1 immunofluorescence intensity” value turned out to be 0.902.
The figure for `O=C1N(c2ccccc2)c2ccccc2C1(Cc1ccncc1)Cc1ccncc1` [Linopirdine dihydrochloride] is 0.91.
The figure for `OCCOCCN1CCN(C(c2ccccc2)c2ccc(Cl)cc2)CC1` (stereo not given) [Hydroxyzine dihydrochloride] is 0.928.
The figure for `COc1ccc(CNC(=O)Nc2ncc([N+](=O)[O-])s2)cc1` is 1.12 ± 0.097; for `C=CC1=C(C(=O)O)N2C(=O)[C@@H](NC(=O)/C(=N\OCC(=O)O)c3csc(N)n3)[C@H]2SC1` [Cefixime] it is 1.
Take `Nc1cccc2c1CN(C1CCC(=O)NC1=O)C2=O` (stereo not given) [Lenalidomide (Revlimid)]: the “surface PD-L1 immunofluorescence intensity” value was determined as 1.07.
The figure for `CC(=O)Nc1ccc(O)cc1` [Acetaminophen] is 1.08; for `O=C(Nc1ccc(-c2ccnc(Nc3ccc(N4CCOCC4)cc3)n2)cc1)C1CCCN1` (stereo not given) it is 0.906; for `COc1nc(-c2ccc3c(c2)OCO3)n(-c2ccc(NC(=O)CSc3ccccc3)cc2)n1` [SecinH3] it is 0.987.
The figure for `COc1ccc2[nH]c([S+]([O-])Cc3ncc(C)c(OC)c3C)nc2c1` (stereo not given) [Omeprazole] is 1.042 ± 0.0053.
The figure for `CO/N=C(\C(=O)N[C@@H]1C(=O)N2C(C(=O)O)=C(C[N+]3(C)CCCC3)CS[C@H]12)c1csc(N)n1` [Cefepime hydrochloride] is 0.96; for `CCOC(=O)[C@H](CCc1ccccc1)N[C@@H](C)C(=O)N1CCC[C@H]1C(=O)O` [Enalapril maleate] it is 0.973; for `O=C1CC2(CCCC2)CC(=O)N1CCNCC1COc2ccccc2O1` (stereo not given) it is 0.978.
On to `C[C@]12CC[C@@H]3c4ccc(O)cc4CC[C@H]3[C@@H]1C[C@@H](O)[C@@H]2O` [Estriol], for which the “surface PD-L1 immunofluorescence intensity” value is 0.942 ± 0.14.
For `CN(C)CCCO[C@@H]1[C@H]2OC(C)(C)O[C@H]2O[C@@H]1[C@H](O)CO` [Amiprilose hydrochloride], the “surface PD-L1 immunofluorescence intensity” value was 0.921.
The figure for `CCC[C@H](NC(=O)[C@@H]1[C@H]2CCC[C@H]2CN1C(=O)[C@@H](NC(=O)[C@@H](NC(=O)c1cnccn1)C1CCCCC1)C(C)(C)C)C(=O)C(=O)NC1CC1` [Telaprevir (VX-950)] is 1.07.
As to `Cc1noc(NS(=O)(=O)c2ccc(N)cc2)c1C` [Sulfisoxazole], the “surface PD-L1 immunofluorescence intensity” value worked out at 1.11 ± 0.082.
The figure for `CCc1cccc2c3c([nH]c12)C(CC)(CC(=O)O)OCC3` (stereo not given) [Etodolac (Lodine)] is 0.983; for `CC[N+](CC)(CC)CCC(O)(c1ccccc1)C1CCCCC1` (stereo not given) [Tridihexethyl chloride] it is 1.03.
Turning to `C[C@@H]1CN(CC(=O)Nc2ccc3c(c2)Cc2cccc(-c4cc(=O)cc(N5CCOCC5)o4)c2S3)C[C@H](C)O1`, the “surface PD-L1 immunofluorescence intensity” value is 0.965.
The figure for `C=CC(=O)N1CCC[C@@H](n2nc(-c3ccc(Oc4ccccc4)cc3)c3c(N)ncnc32)C1` is 1.12 ± 0.11.
The figure for `C=CC(=O)Nc1ccc2ncnc(Nc3ccc(OCc4cccc(F)c4)c(Cl)c3)c2c1` is 1.03; for `CC1=C(CC(=O)O)c2cc(F)ccc2/C1=C\c1ccc([S+](C)[O-])cc1` (stereo not given) [Sulindac] it is 0.992 ± 0.089.
The figure for `CC(Oc1c(Cl)cccc1Cl)C1=NCCN1` (stereo not given) [Lofexidine] is 0.936; for `Cn1c(=O)cc(N2CCC[C@@H](N)C2)n(Cc2ccccc2C#N)c1=O` [Alogliptin (SYR-322)] it is 0.954; for `CCCCCCCN(CC)CCCC(O)c1ccc(NS(C)(=O)=O)cc1` (stereo not given) [Ibutilide fumarate] it is 0.997.
With `Cc1nnc(C(C)C)n1C1C[C@H]2CC[C@@H](C1)N2CC[C@H](NC(=O)C1CCC(F)(F)CC1)c1ccccc1` (stereo in doubt) [Maraviroc], the “surface PD-L1 immunofluorescence intensity” value was 1.06.
In the case of `COc1ccc(-c2cc(=O)c3c(O)cc(O[C@@H]4O[C@H](CO[C@@H]5O[C@@H](C)[C@H](O)[C@@H](O)[C@H]5O)[C@@H](O)[C@H](O)[C@H]4O)cc3o2)cc1O` [Diosmin], the “surface PD-L1 immunofluorescence intensity” value stood at 1.01 ± 0.11.
Turning to `CS(=O)(=O)CCNCc1nc(-c2ccc3ncnc(Nc4ccc(OCc5cccc(F)c5)c(Cl)c4)c3c2)cs1`, the “surface PD-L1 immunofluorescence intensity” value turned out to be 1.05.
For `CC1CS(=O)(=O)CCN1/N=C/c1ccc([N+](=O)[O-])o1` (stereo not given) [Nifurtimox], the “surface PD-L1 immunofluorescence intensity” value is 0.953.
For `CCOC(=O)c1ncc2[nH]c3cccc(OC(C)C)c3c2c1C`, the “surface PD-L1 immunofluorescence intensity” value came to 0.882.
As for `CN1CC2c3ccccc3Oc3ccc(Cl)cc3C2C1` (stereo not given) [Asenapine maleate], the “surface PD-L1 immunofluorescence intensity” value was 0.956 ± 0.015.
In the case of `c1ccc2[nH]c(-c3cscn3)nc2c1` [Tiabendazole], the “surface PD-L1 immunofluorescence intensity” value was determined as 0.896.
Consider `Cn1cc(-c2ccc3nnc(C(F)(F)c4ccc5ncccc5c4)n3n2)cn1`, for which the “surface PD-L1 immunofluorescence intensity” value turned out to be 0.976.
`CCC(CC)CC1(C(=O)Nc2ccccc2SC(=O)C(C)C)CCCCC1` [Dalcetrapib (JTT-705)]: the “surface PD-L1 immunofluorescence intensity” value is 1.07.
With `CN1[C@@H](CC(=O)c2ccccc2)CCC[C@H]1C[C@H](O)c1ccccc1` [Lobeline hydrochloride], the “surface PD-L1 immunofluorescence intensity” value came out at 1.13.
For `CN(C)[C@@H]1C(O)=C(C(N)=O)C(=O)[C@@]2(O)C(O)=C3C(=O)c4c(O)ccc(Cl)c4[C@@](C)(O)[C@H]3C[C@@H]12` [Chlortetracycline hydrochloride], the “surface PD-L1 immunofluorescence intensity” value came to 0.994.
Regarding `CC(=O)N(CC(C)C(=O)O)c1c(I)cc(I)c(N)c1I` (stereo not given) [Iocetamic acid], the “surface PD-L1 immunofluorescence intensity” value stood at 0.926.
The figure for `CC(C)[C@H](N)C(=O)N[C@H](C(=O)N[C@H](C(=O)O)C(C)C)C(C)C` is 0.856; for `c1ccc(N2CCN(Cc3nc4ccccc4[nH]3)CC2)nc1` [ABT 724 trihydrochloride] it is 1.02.
Regarding `COC(=O)c1c(-c2cc(OC)c(OC)c(OC)c2)c2ccnc(OCc3ncccn3)c2c(=O)n1Cc1ccnc(C)c1` [T 0156 hydrochloride], the “surface PD-L1 immunofluorescence intensity” value turned out to be 0.964.
As for `C[C@]12CC[C@@H]3c4ccc(O)cc4CC[C@H]3[C@@H]1CCC2=O` [Estrone], the “surface PD-L1 immunofluorescence intensity” value came out at 0.98 ± 0.03.
The figure for `CCOC(=O)C1=C[C@]2(CC)CCCN3CCc4c(n1c1ccccc41)[C@@H]32` [Vinpocetine (Cavinton)] is 1.14; for `CCOC(=O)C1=C[C@]2(CC)CCCN3CCc4c(n1c1ccccc41)[C@@H]32` [Vinpocetine] it is 1.01 ± 0.18; for `COc1cnc(NS(=O)(=O)c2ccc(N)cc2)nc1` [Sulfameter] it is 1.04.
As for `O=C(O)CCC(=O)Nc1ccc(S(=O)(=O)Nc2nccs2)cc1` [Succinylsulfathiazole], the “surface PD-L1 immunofluorescence intensity” value worked out at 0.954.
The figure for `Cn1cnnc1Sc1c([N+](=O)[O-])ncn1C` is 0.96; for `Cc1cccc(CN2CCN(C(c3ccccc3)c3ccc(Cl)cc3)CC2)c1` (stereo not given) [Meclozine dihydrochloride] it is 1.05.
Take `COc1ccccc1O` [Guaiacol]: the “surface PD-L1 immunofluorescence intensity” value amounted to 1.
The figure for `CNCCC(Oc1ccccc1OC)c1ccccc1` (stereo not given) [Nisoxetine hydrochloride] is 1.11.
For `CCCCC(C)(O)C/C=C/[C@H]1[C@H](O)CC(=O)[C@@H]1CCCCCCC(=O)OC` (mixture of isomers) [Misoprostol], the “surface PD-L1 immunofluorescence intensity” value is 1.09.
The figure for `COc1cc(CCC(C)=O)ccc1O` [Vanillylacetone] is 1.03.
The figure for `O=NN(CCCl)C(=O)NC1CCCCC1` [Lomustine (CeeNU)] is 0.936; for `CC(C)C[C@H](NC(=O)[C@H]1O[C@@H]1C(=O)O)C(=O)NCCCCN=C(N)N` it is 0.863.
On to `CC1(C)NC(=O)N(c2ccc([N+](=O)[O-])c(C(F)(F)F)c2)C1=O` [Nilutamide], for which the “surface PD-L1 immunofluorescence intensity” value was found to be 1.11 ± 0.057.
Consider `N[C@@H](CC(=O)Nc1ccc(Oc2cc(F)c(F)cc2Br)cc1)C(=O)O`, for which the “surface PD-L1 immunofluorescence intensity” value stood at 0.939.
With `Cc1[nH]c(/C=C2\C(=O)Nc3ccc(S(=O)(=O)N(C)c4cccc(Cl)c4)cc32)c(C)c1C(=O)N1CCN(C)CC1`, the “surface PD-L1 immunofluorescence intensity” value is 0.874.
The figure for `CCCCC(CC)CNC(=N)NC(=N)NCCCCCCNC(=N)NC(=N)NCC(CC)CCCC` (stereo not given) [Alexidine dihydrochloride] is 0.983.
In the case of `COC(=O)[C@@H]1[C@H]2C[C@H]3c4[nH]c5ccccc5c4CCN3C[C@@H]2CC[C@@H]1O` [Yohimbine hydrochloride], the “surface PD-L1 immunofluorescence intensity” value amounted to 1.06 ± 0.14.

These data come from the supplement of paper PMC8732350.
